# Assay results taken from PubChem BioAssay (EPA / NIEHS).
# Amino acid sequences for entries named in this document (tags omitted). A change or cut given only in a name is not applied to a line headed by its entry.
# UniProt Q96RI1: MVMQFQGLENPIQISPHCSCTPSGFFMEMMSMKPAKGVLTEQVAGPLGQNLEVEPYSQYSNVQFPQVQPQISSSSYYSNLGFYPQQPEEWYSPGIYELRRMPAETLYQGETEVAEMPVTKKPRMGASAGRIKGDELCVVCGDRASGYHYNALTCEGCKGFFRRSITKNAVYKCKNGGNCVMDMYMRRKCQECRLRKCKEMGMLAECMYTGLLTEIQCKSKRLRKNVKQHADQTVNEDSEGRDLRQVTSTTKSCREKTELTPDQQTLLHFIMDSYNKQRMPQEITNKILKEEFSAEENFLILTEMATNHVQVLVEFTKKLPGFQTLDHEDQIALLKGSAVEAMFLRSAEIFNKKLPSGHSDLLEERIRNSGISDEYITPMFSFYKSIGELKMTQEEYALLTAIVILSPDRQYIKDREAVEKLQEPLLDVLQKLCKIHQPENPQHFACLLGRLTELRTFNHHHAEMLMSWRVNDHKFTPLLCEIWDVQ
# UniProt P42336, whole entry, looked up: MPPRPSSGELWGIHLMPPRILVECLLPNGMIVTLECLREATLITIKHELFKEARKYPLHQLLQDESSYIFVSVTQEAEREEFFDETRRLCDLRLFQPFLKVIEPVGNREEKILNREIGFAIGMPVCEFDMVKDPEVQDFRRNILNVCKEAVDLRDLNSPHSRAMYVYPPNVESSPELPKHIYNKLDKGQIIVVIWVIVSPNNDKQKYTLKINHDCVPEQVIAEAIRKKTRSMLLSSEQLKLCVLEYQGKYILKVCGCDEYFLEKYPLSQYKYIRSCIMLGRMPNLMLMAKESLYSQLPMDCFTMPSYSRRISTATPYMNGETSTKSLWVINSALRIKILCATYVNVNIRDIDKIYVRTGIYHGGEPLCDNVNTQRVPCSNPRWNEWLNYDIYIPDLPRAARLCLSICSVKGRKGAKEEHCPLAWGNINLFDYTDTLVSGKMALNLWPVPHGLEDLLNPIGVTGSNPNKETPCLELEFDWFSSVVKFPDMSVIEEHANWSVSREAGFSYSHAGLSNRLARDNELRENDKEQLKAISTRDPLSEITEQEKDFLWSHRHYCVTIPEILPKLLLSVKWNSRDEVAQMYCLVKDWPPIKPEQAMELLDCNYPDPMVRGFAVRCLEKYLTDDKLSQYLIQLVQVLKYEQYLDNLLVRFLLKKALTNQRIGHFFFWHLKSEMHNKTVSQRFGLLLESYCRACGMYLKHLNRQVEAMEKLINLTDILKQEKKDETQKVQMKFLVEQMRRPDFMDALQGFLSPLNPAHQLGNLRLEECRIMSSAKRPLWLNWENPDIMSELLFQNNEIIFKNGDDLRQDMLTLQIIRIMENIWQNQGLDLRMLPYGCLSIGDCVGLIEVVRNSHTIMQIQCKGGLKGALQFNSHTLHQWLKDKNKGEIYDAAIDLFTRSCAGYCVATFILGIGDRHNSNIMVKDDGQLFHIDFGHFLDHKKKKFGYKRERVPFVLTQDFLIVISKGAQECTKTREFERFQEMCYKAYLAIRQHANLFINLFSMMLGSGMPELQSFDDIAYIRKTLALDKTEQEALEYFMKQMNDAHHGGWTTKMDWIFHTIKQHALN
# UniProt Q98867: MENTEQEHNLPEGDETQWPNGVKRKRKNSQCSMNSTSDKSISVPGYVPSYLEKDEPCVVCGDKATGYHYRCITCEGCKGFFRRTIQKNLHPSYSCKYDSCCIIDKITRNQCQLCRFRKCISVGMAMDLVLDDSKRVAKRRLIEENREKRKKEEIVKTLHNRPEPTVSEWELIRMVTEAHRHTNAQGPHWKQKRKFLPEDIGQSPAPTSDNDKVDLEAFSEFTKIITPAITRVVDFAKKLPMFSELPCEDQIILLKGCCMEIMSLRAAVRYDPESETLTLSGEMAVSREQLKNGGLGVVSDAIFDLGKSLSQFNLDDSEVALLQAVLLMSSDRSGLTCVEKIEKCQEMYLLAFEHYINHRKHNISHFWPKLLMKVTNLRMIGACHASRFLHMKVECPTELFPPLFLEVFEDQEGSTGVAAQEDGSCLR
# UniProt P49884, whole entry, looked up: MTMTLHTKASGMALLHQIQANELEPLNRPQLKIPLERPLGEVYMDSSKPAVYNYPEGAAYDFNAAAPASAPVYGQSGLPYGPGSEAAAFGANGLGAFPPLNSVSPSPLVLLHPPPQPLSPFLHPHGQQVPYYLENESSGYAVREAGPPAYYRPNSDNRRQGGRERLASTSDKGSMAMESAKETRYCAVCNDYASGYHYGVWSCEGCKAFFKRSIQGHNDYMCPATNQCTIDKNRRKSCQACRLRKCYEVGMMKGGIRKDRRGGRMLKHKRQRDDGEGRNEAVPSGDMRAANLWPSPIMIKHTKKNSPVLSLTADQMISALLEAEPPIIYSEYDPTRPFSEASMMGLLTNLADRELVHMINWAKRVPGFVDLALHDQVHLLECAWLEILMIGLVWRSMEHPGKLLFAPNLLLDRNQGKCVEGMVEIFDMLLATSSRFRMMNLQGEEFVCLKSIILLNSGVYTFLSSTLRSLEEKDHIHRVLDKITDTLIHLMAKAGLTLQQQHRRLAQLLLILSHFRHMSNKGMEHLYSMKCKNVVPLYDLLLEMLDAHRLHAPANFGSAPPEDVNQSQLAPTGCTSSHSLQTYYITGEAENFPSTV
# UniProt Q92731, whole entry, looked up: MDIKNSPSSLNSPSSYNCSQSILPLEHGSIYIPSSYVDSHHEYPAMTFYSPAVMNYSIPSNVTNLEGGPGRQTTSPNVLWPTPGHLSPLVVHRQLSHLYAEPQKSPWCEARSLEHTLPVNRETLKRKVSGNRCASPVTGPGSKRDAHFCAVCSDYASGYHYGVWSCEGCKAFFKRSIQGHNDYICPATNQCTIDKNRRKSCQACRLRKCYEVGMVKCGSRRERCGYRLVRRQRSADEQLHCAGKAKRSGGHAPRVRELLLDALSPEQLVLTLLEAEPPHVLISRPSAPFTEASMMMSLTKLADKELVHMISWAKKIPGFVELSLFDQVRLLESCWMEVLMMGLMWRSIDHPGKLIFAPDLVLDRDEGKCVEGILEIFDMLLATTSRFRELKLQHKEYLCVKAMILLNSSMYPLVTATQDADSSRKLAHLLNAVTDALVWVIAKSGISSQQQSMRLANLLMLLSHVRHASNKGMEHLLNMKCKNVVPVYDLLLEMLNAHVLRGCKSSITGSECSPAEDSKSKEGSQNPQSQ
# UniProt P17948, whole entry, looked up: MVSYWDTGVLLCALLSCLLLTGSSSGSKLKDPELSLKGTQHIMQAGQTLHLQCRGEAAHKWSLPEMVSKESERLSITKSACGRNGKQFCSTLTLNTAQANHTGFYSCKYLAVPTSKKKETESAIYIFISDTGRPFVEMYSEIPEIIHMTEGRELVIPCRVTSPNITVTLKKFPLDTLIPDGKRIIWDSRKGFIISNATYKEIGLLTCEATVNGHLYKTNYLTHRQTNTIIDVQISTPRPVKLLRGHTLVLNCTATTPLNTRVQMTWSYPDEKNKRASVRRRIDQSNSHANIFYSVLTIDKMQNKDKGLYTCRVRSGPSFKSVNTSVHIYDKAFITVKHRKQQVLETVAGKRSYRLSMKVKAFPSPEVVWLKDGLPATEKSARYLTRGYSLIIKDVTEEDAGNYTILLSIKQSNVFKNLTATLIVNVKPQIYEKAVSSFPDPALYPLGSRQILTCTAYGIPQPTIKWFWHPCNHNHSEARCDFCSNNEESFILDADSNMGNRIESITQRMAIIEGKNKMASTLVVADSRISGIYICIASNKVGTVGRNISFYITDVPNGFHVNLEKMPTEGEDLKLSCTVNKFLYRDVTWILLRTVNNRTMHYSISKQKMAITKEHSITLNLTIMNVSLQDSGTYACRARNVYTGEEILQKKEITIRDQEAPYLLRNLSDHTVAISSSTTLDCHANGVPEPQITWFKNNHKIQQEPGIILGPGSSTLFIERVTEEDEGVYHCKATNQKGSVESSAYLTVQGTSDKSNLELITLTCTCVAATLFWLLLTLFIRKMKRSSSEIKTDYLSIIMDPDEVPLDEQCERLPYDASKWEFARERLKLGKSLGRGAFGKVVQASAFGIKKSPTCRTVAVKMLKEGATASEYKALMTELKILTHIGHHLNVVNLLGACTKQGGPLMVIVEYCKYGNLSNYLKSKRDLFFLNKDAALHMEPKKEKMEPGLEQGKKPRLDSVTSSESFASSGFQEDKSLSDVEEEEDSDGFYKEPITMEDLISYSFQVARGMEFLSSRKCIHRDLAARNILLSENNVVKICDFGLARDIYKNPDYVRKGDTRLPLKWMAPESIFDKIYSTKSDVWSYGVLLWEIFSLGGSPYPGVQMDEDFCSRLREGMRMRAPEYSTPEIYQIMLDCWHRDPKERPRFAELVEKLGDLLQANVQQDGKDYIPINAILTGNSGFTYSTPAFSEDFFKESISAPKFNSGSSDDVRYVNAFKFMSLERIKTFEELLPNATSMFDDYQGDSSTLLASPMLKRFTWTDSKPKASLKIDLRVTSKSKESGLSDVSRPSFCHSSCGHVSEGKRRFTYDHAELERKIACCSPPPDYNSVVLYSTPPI
# UniProt Q9PVE4: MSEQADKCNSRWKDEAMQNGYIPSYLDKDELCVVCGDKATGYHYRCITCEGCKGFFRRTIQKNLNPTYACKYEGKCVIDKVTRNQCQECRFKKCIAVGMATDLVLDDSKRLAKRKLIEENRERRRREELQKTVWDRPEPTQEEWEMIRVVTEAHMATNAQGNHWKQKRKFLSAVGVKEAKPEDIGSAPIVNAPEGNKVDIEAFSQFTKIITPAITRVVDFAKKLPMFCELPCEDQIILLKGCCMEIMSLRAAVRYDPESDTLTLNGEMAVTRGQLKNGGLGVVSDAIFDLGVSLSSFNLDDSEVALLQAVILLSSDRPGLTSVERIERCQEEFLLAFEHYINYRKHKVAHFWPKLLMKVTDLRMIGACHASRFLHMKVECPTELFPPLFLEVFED
# Values joined by “and” are separate entries in the source; they are usually repeats but may differ in a detail not shown here. Equal values may be shown once. The inconclusive results got no clear call from the source; some entries with a clear call stand among them for comparison. For some assays here: A potency beside an inconclusive call is a rough fit, not a confirmed value. A structure can be active in one record and inactive in another. Active and inactive are the calls of the source. The calls were made as follows: active = hit-call score of the fitted dose curve at least 0.9, where 1 is the maximum; inconclusive = response in the unintended direction; inactive = score below 0.9.
# Assays:
# [1] = molecular target: Bile acid receptor (Homo sapiens) (UniProt Q96RI1); experiment: ATG_FXR_TRANS: Attagene TRANS-FACTORIAL HepG2 Assay for Farnesoid X Receptor (FXR) (AID 2282979); settings: HepG2 Attagene TRANS FXR-GAL4 reporter transcription;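 also: hits raise reporter mRNA above DMSO so AC50 marks FXR activation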
# Procedure, shortened: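 HepG2 cells were transiently transfected with GAL4-UAS reporters driven by chimeric NR-Gal4 proteins and dosed for 24 h. Reporter mRNA was quantified by RT-PCR, fluorescent labelling, HpaI digestion and capillary electrophoresis, with gain of signal scored versus DMSO.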
# [2] = molecular target: human Phosphoinositide 3-kinase alpha (PI3Ka), PIK3CA (gene 5290) (UniProt P42336); experiment: NVS_ENZ_hPI3Ka: NovaScreen (NVS) Enzymatic Assay for human Phosphoinositide 3-kinase alpha (PI3Ka) (AID 2283196)
# Procedure, shortened: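 Recombinant human PI3Kα with fluorescent substrate, 1 h, product separated by electrophoretic mobility shift; 25 uM duplicate screen, hits (e.g., 30% inhibition) retested singly up to 50 uM; loss of signal vs DMSO.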
# [3] = molecular target: Bile acid receptor (Homo sapiens) (UniProt Q96RI1); experiment: OT_FXR_FXRSRC1_1440: Odyssey Thera (OT) 24-hour HEK293T Protein-Complementation Assay for Farnesoid X receptor/SRC-1 Co-activator (AID 2283384)
# Procedure, shortened: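 Single endpoint, analysed for increased fluorescence against DMSO controls. HEK293T cells carrying FXR and SRC-1 linked to complementary reporter halves were exposed to chemicals for 24 h before reading.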
# [4] = Tanguay_ZF_120hpf_BRAI_legacy: (Legacy) Oregon State University Tanguay Lab 120 Hour Post-fertilization zebrafish Assay for Brain Malformation (AID 2283641)
# Procedure, shortened: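 Tropical 5D wild-type zebrafish embryos exposed statically until 120 hpf at 28C, 0.64% DMSO final, sealed and dark. Brain malformation scored present/absent by brightfield at 120 hpf; dead embryos excluded. Trimethyltin chloride 5uM positive control.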
# [5] = Tanguay_ZF_120hpf_NC_legacy: (Legacy) Oregon State University Tanguay Lab 120 Hour Post-fertilization zebrafish Assay for Notochord and Tail Malformation (AID 2283656)
# Procedure, shortened: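 Binary notochord-distortion calls, made by brightfield inspection, form the read-out; activity is fitted in the positive direction against DMSO. Exposure ran statically from 6 to 120 hpf at 28C with 0.64% DMSO.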
# [6] = test system: zebrafish Androgen Receptor (AR), gene 100005148; experiment: ATG_zfAR_XSP2: Attagene TRANS-FACTORIAL Multi-Species (XSP2) HepG2 Assay for zebrafish Androgen Receptor (AR) (AID 2283825);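 also: reporter transcript measured by RT-PCR then capillary electrophoresis after 24 h; hits raise reporter mRNA above DMSO so AC50 reflects agonist-type gain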
# Procedure, shortened: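 After 24 h compound exposure in medium with 3 nM 6-alpha-fluorotestosterone plus 1.5 nM norgestrel, HepG2 cells carrying zebrafish AR–GAL4 reporter constructs were assessed for reporter mRNA gain by RT-PCR and capillary electrophoresis.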
# [7] = ATG_M_32_XSP2: Attagene TRANS-FACTORIAL Multi-Species (XSP2) HepG2 Assay for M19 Transcription Factor (Internal Marker) (AID 2283826)
# Procedure, shortened: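 HepG2 cells transiently transfected with GAL4-UAS reporter units; XSP2 panel included 3 nM 6-alpha-fluorotestosterone and 1.5 nM norgestrel for androgen receptor stimulation. Reporter mRNA read 24 h post-dosing by RT-PCR/capillary electrophoresis; fitted upward versus DMSO.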
# [8] = molecular target: zebrafish Thyroid Hormone Receptor alpha (TRa), thraa (gene 30670) (UniProt Q98867); experiment: ATG_zfTRa_XSP2: Attagene TRANS-FACTORIAL Multi-Species (XSP1) HepG2 Assay for zebrafish Thyroid Hormone Receptor alpha (TRa) (AID 2283832);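 also: actives raise zebrafish TRa-Gal4 reporter transcript above DMSO baseline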
# Procedure, shortened: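 Multiplexed TRANS reporter format in HepG2; the medium also contained 3 nM 6-alpha-fluorotestosterone and 1.5 nM norgestrel. Reporter mRNA after 24 h read by RT-PCR and capillary electrophoresis, scored as induction over DMSO.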
# [9] = test system: zebrafish Peroxisome Proliferator-activated Receptor gamma (PPARg), gene 557037; experiment: ATG_zfPPARg_XSP2: Attagene TRANS-FACTORIAL Multi-Species (XSP2) HepG2 Assay for zebrafish Peroxisome Proliferator-activated Receptor gamma (PPARg) (AID 2283833);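 also: reporter mRNA from a zebrafish PPARg GAL4 chimera measured by RT-PCR and capillary electrophoresis; actives increase reporter signal over DMSO so AC50 reflects activation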
# Procedure, shortened: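 HepG2 cells transiently transfected with multiplexed GAL4-UAS reporter units expressing chimeric NR-Gal4 receptors, dosed 24 h. Reporter mRNA quantified by RT-PCR, fluorescent labelling, HpaI digestion and capillary electrophoresis; gain of signal fitted against DMSO.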
# [10] = CCTE_Shafer_MEA_dev_AB: CCTE's Alamar Blue Assay for Cytotoxicity in the Neural Network Formation Assay, Shafer Lab (AID 2284083);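 also: twelve days of exposure from plating with re-dosing on DIV 5 and 9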
# Procedure, shortened: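 Primary rat cortical neurons on PEI-coated 48-well MEA plates, 1.5 x 10^5 cells/well in laminin drop; compound exposure from day 0 of plating for twelve days, renewed at medium changes on DIV 5 and 9. Viability read as resazurin reduction by fluorescence, relative to DMSO.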
# [11] = CCTE_Mundy_HCI_hNP1_Pro_ResponderAvgInten: CCTE's Proliferation Assay in human neuroprogenitor cells, Mundy Lab (AID 2284224);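 also: human neural progenitor cells hNP1 derived from WA09 embryonic stem cells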
# Procedure, shortened: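 Proliferation read as average intensity of BrdU-positive cells, imaged at 26.25 h post-dosing: chemical exposure started after 40–44 h culture, BrdU during final 4 h, paraformaldehyde fixation. Positive-direction fit relative to DMSO.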
# [12] = test system: SRY-box transcription factor 2 (SOX2) Protein Expression, Deisenroth Lab, SOX2 (gene 6657); experiment: CCTE_Deisenroth_DEVTOX-GLR_Endo_SOX2: CCTE's DevTox GLR-Endo Assay Evaluation of SRY-box transcription factor 2 (SOX2) Protein Expression, Deisenroth Lab (AID 2284412)
# Procedure, shortened: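 Endpoint is percent SOX2-positive cells (SOX2+ count/total cells) minus 0.2% DMSO control, from high-content imaging of fixed, nuclear-stained RUES2-GLR cells. Dosing twice at 24 h intervals over 48 h differentiation, 1 nM–200 uM in 10 points.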
# [13] = molecular target: bovine Estrogen Receptor (ER), ESR1 (gene 407238) (UniProt P49884); experiment: NVS_NR_bER: NovaScreen (NVS) Nuclear Receptor Binding Assay for bovine Estrogen Receptor (ER) (AID 2283345);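 also: actives lower the bound radioligand count which means they displace the ER ligand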
# Procedure, shortened: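 Cell-free radioligand binding with bovine uterine membrane extracts, read 18 hours after dosing by scintillation counting. Loss of signal versus DMSO baseline indicates displacement. Primary screen run in duplicate at 25 uM, actives followed in concentration series.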
# [14] = molecular target: Estrogen receptor beta (Homo sapiens) (UniProt Q92731); experiment: OT_ER_ERbERb_0480: Odyssey Thera (OT) 8-hour HEK293T Protein-Complementation Assay for Estrogen Receptor-beta/-beta Homodimer (AID 2283357);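 also: active means signal gain over DMSO baseline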
# Procedure, shortened: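 Homodimerization of ER-beta LBD measured by protein-fragment complementation in HEK293T; 8 h dosing; fixed, Draq5 counterstain; fluorescence intensity gain over DMSO baseline, positive fitting direction; laser scanning cytometry.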
# [15] = molecular target: human Vascular Endothelial Growth Factor Receptor 1 (VEGFR1), FLT1 (gene 2321) (UniProt P17948); experiment: NVS_ENZ_hVEGFR1: NovaScreen (NVS) Enzymatic Assay for human Vascular Endothelial Growth Factor Receptor 1 (VEGFR1) (AID 2283226)
# Procedure, shortened: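 Kinase activity of recombinant human VEGFR1 was read by fluorescence after electrophoretic separation of product from substrate, 1 h post-dosing; initial duplicate single-point testing at 25 uM, followed by concentration-series follow-up, with DMSO as baseline.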
# [16] = molecular target: Bile acid receptor (Homo sapiens) (UniProt Q96RI1); experiment: OT_FXR_FXRSRC1_0480: Odyssey Thera (OT) 8-hour HEK293T Protein-Complementation Assay for Farnesoid X receptor/SRC-1 Co-activator (AID 2283383)
# Procedure, shortened: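 Readings were taken 8 h after dosing HEK293T cells in a split-reporter complementation format pairing FXR with SRC-1. Increased fluorescence relative to DMSO-treated wells defined activity.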
# [17] = CCTE_Deisenroth_AIME_384WELL_CTox_Inactive: Cytotoxicity Assessment (CTOX) in CCTE's 384-well Estrogen Receptor Transactivation Assay without AIME metabolic competence (metabolism negative), Deisenroth Lab (AID 2284039);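 also: cell viability via live-cell protease substrate cleaved to fluorescent probe; cells exposed 24 h to medium preincubated 2 h with alginate-water beads without S9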
# Procedure, shortened: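 VM7Luc4E2 cells, metabolism-negative arm: test chemicals (0.002–200 uM, 10 points) pre-incubated 2 h with alginate-water microspheres, then medium transferred to cells for 24 h. Viability read as protease-substrate cleavage to fluorescent probe; loss-of-signal, bidirectional fitting.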
# [18] = CCTE_Shafer_MEA_acute_AB: CCTE's Alamar Blue Assay for Cytotoxicity in the Neural Acute Assay, Shafer Lab (AID 2284069);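 also: active compounds lower the viability signal compared with DMSO wells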
# Procedure, shortened: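 Primary rat cortical neurons on MEA plates, exposed acutely after baseline recording on day 13 or 15 post-plating. Viability by CellTiter Blue resazurin reduction (1:6 reagent dilution), fluorescence 544/590 nm; loss of signal versus DMSO.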
# [19] = ACEA_AR_antagonist_AUC_viability: ACEA Biosciences xCELLigence Real-Time Cell Analysis on Androgen Receptor Antagonism for Viability (AID 2283776);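 also: area under impedance growth curve at 80 h after dosing as viability; hits lower the growth signal relative to DMSO meaning cytotoxicity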
# Procedure, shortened: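 22Rv1 human prostate cancer cells were seeded on electrode plates, monitored overnight, then exposed to eight 1:4 dilutions from 100 uM final. Impedance-based growth kinetics at 80 h gave an AUC viability endpoint normalized to DMSO.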
# [20] = molecular target: zebrafish Thyroid Hormone Receptor beta (TRb), thrb (gene 30607) (UniProt Q9PVE4); experiment: ATG_zfTRb_XSP2: Attagene TRANS-FACTORIAL Multi-Species (XSP1) HepG2 Assay for zebrafish Thyroid Hormone Receptor beta (TRb) (AID 2283836);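 also: potency for induction of reporter signal above DMSO so agonist direction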
# Procedure, shortened: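 Multiplexed trans-activation in HepG2 cells, 24 h treatment, with reporter mRNA read by RT-PCR and capillary electrophoresis. Gain-of-signal against DMSO.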
compound,measurement,setting,value
CC/C(=C(/CC)c1ccc(O)cc1)c1ccc(O)cc1,AC50,[1],inconclusive: 3.36 nM and inconclusive: 33.4 µM
same,AC50,[2],active: 40 µM and active: 17.3 µM and active: 27.8 µM
same,AC50,[3],inconclusive: 87.8 µM and inconclusive: 91.7 µM
same,outcome,[4],inactive
same,AC50,[5],inconclusive: 4.38 µM
same,AC50,[6],inconclusive: 100 nM
same,AC50,[7],inconclusive: 0.271 nM
same,AC50,[8],inconclusive: 100 nM
same,AC50,[9],inconclusive: 19.8 nM
same,outcome,[10],inactive
same,outcome,[11],inactive
same,AC50,[12],active: 2780 nM
CC(C)c1ccccc1N,AC50,[1],inconclusive: 135 µM
CC(C)(C)C1CCC(=O)CC1,outcome,[1],inactive
same,AC50,[13],active: 25000 nM
C[C@]12CC[C@@H]3c4ccc(O)cc4CC[C@H]3[C@@H]1C[C@@H](O)[C@@H]2O,AC50,[14],active: 552 nM
same,AC50,[6],inconclusive: 100 nM
same,AC50,[7],inconclusive: 100 nM
same,AC50,[9],inconclusive: 100 nM
C=CC(=O)OCCCCCC,outcome,[2],inactive
same,AC50,[15],inconclusive: 720 nM
CC(=O)/C=C/C1C(C)=CCCC1(C)C (stereo unspecified),outcome,[16],inactive
O=C(O)CC(O)C(=O)O (stereo unspecified),AC50,[14],inconclusive: 50000 nM
same,outcome,[5],inactive
same,AC50,[17],inconclusive: 0.2 nM
C[Si](C)(C)O[Si](C)(C)C,outcome,[1],inactive
same,AC50,[16],inconclusive: 50 µM
same,AC50,[3],inconclusive: 0.785 µM
CCOC(=O)CC(=O)OCC,outcome,[1],inactive
same,AC50,[3],inconclusive: 9.23 µM
same,AC50,[17],inconclusive: 0.205 nM
Cc1ccc(S(N)(=O)=O)cc1,outcome,[16],inactive
same,AC50,[3],inconclusive: 49.8 µM
S=C(S)NCCNC(=S)S.[Mn+2].[S-]C([S-])=NCCN=C([S-])[S-].[Zn+2],AC50,[15],active: 7010 nM
same,outcome,[15],inactive
same,AC50,[14],inconclusive: 25000 nM
same,AC50,[5],inconclusive: 17.1 µM and inconclusive: 52.9 µM
same,outcome,[10],inactive
same,AC50,[11],inconclusive: 15000 nM
CC(=O)c1ccc(O)cc1,AC50,[16],inconclusive: 9.92 µM
same,AC50,[3],inconclusive: 2.86 µM
Nc1nc(N)nc(-c2ccccc2)n1,AC50,[18],inconclusive: 15000 nM
CC1=CCCC(C)(C)C12CCC(C)O2 (stereo unspecified),outcome,[1],inactive
CC(=O)OCc1ccccc1,outcome,[17],inactive
CC(=O)OC(C)(C)Cc1ccccc1,outcome,[17],inactive
O=C(O)c1cc(N=Nc2ccc(S(=O)(=O)Nc3ccccn3)cc2)ccc1O,outcome,[15],inactive
same,AC50,[17],active: 49700 nM
same,AC50,[12],inconclusive: 100000 nM
CC[N+](CC)(CC(=O)Nc1c(C)cccc1C)Cc1ccccc1 (tested in a mixture with another compound),AC50,[18],inconclusive: 44.7 nM
S=C([S-])NCCNC(=S)[S-].[Mn+2],outcome,[2],inactive
same,outcome,[10],inactive
same,AC50,[11],inconclusive: 0.1 nM
C[C@]12CC[C@@H]3c4ccc(O)cc4CC[C@H]3[C@@H]1CCC2=O,AC50,[16],inconclusive: 879 nM and inconclusive: 500 nM
same,AC50,[3],inconclusive: 108 nM and inconclusive: 129 nM
same,AC50,[4],inconclusive: 29900 nM
same,AC50,[19],active: 71600 nM
same,outcome,[19],inactive
same,AC50,[6],inconclusive: 0.44 nM
same,AC50,[7],inconclusive: 100 nM
same,AC50,[8],inconclusive: 100 nM
same,AC50,[9],inconclusive: 100 nM
same,AC50,[20],inconclusive: 100 nM
OC[C@H]1O[C@H](O[C@]2(CCl)O[C@H](CCl)[C@@H](O)[C@@H]2O)[C@H](O)[C@@H](O)[C@H]1Cl,outcome,[18],inactive
Cc1cc(Br)ccc1NC(=O)CCl,AC50,[13],inconclusive: 25000 nM
CCCCCCCCOCCCN,AC50,[13],inconclusive: 25000 nM

# In another format: results already given.
compound	measurement	setting	value
C[C@]12CC[C@@H]3c4ccc(O)cc4CC[C@H]3[C@@H]1CCC2=O	AC50	[19]	active: 71600 nM
same	outcome	[19]	inactive
same	AC50	[6]	inconclusive: 0.44 nM

# Quoted at random: two entries already listed, in no set order.
compound,measurement,setting,value
C=CC(=O)OCCCCCC,AC50,[15],inconclusive: 720 nM
same,outcome,[2],inactive
